Experimental data published in PMC10163288.
The list shows a part of the results.

B1: il10ra_site1_sap_14_mot_HHH_b1_06914_000000280_0001_1_18_H_._HHH_b1_03835_0001_0000200024_0000001_0_0001_af2pred_0001 (protein)
chain: SSSSSDEERDRRAVELALELLKLADEEVIRRLLRVAKRLAEELNDPELQRLIEEVEEELGSSSSS
B2: il10ra_site1_sap_21_mot_5fda0655e6834f3f331eaa9f580e88ed_0001_af2_000000239_0001_36_50_H_._6586f062cc7817236c67ed8004cc3ec0_0001_0001_0000200013_0000001_0_0001_ … (protein)
chain: SSSSSNDEVFEEVRRLLEEAAQIEDPEEAREVVEEAQRLAEETGNELLELAVEYLLELVGSSSSS
B3: il10ra_site1_normal_mot_HHH_b2_04680_000000215_0001_1_16_H_._HHH_b2_06837_af2_0001_0001300028_0000001_0_af2pred_0001 (protein)
chain: SSSSSSSEKKEVIRLLLEAARIEDPEEAREVVEEALRLAEELNDELLQRQAKVLLRVLSSSSSSS
B4: il10ra_site1_sap_26_mot_HHH_b2_07006_000000108_0001_1_19_H_._HHH_b2_07878_0001_0000200024_0000002_0_0001 (protein)
chain: SSSSDAAEFLLRQAIEAAKLALENGDPEKAEWALENARNLAEQLNDEEVQEEIEELEQELSSSSS
B5: il10ra_site1_sap_27_mot_HHH_b2_04057_000000065_0001_1_20_H_._HHH_b2_03219_af2_0001_0000200005_0000002_0_0001 (protein)
chain: SSSSSDSANEEVYRLSREAAELARKGDPRVEEVLEEAKEIAEEANNMLLQYQVEFLERHLSSSSS
B6: il10ra_site1_normal_mot_7d538683ae38ff56261eb02f12605454_0001_af2_000000062_0001_54_65_H_._HHH_b2_03877_0001_0000200010_0000002_0_af2pred_0001 (protein)
chain: SSSSDAEEEVRELALEFSHLLRNGDEEKAEEVLKEIERLAEESNDPQAKLILRLLELKLESSSSS
B7: il10ra_site1_normal_mot_HHH_b1_01821_000000158_0001_23_39_H_._HHH_b2_07101_0001_0000300018_0000001_0 (protein)
chain: SSSSSDEEERRQEVEELLEEARHIDDPEEVIELLLRALQLAYEVKDQELLQEIWELFHKLSSSSS
B8: il10ra_site1_normal_mot_HHH_b2_01310_000000089_0001_41_55_H_._HHH_b1_01285_af2_0001_0000100007_0000001_0_af2pred_dldesign_0_af2pred (protein)
chain: SSSSDDEEIEKMIEEIKELIEAGKLDEAIEKLREFTRKAWEANNEEWVAKVVELADKILESSSSS
B9: il10ra_site1_normal_mot_HHH_b2_00475_000000107_0001_44_57_H_._HHH_b2_01638_af2_0001_0000200008_0000002_0 (protein)
chain: SSSSEEEQRVAELLFRALRLLAEGNPEEAEKVVEEAQKLAEENNDEELRKYVEILRHFIESHSSS
B10: il10ra_site1_normal_mot_HHH_b2_00984_000000042_0001_1_20_H_._HHH_b2_01444_0001_0000200012_0000001_0 (protein)
chain: SSSSSSEAEELLQLLWEAIKNDDEELVRELIEEIEELLERTGDPNVEALLILARLARESLSSSSS

Molecular target: il10ra, Q13651
Assay: yeast display titration

Apparent Kd, inactive:
B1 no binding seen
B2 no binding seen
B3 no binding seen
B4 no binding seen
B5 no binding seen
B6 no binding seen
B7 no binding seen
B8 no binding seen
B9 no binding seen
B10 no binding seen
